# Test results from PubChem BioAssay AID1508600 (Functional Genomics Laboratory (NCATS/FGL), 2020).
# Out of some 53,000 sequences screened, about 3,700 (7%) were called active.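 Rule for the calls: active = gene knockdowns whose robust z-score for IL-1 alpha signal is at least 2 or at most -2, so actives lie on both sides; inactive = the rest.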 The list shows a part of the results.
# Assay: Components of the Cytosolic LPS Sensing Pathway: Gene Identification via Genome-wide siRNA Screen;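 note: robust z of the log signal after scaling to non-targeting control siRNA wells of the plate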
# Conditions: RAW264.7 macrophages, IL-1a HTRF, actives lie on both sides, screened at 100 nM (by protocol), cells primed 5 h with Pam3CSK4 first
# Method in brief: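 Read-out: IL-1a HTRF on supernatant, divided by plate negative-control median ×100, log-transformed and converted to robust z-score. Cells were RAW264.7 given 100 nM siRNA, Pam3CSK4-primed 5 hours, then LipidA-transfected 24 hour.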
row,Sequence,z-score
1,GCAGGUGGUUAUCAACUGUTT against Vasp,inactive: -0.588
2,GGUCCUGUUGGAGAUGAUATT against Ube2d2a,inactive: -0.412
3,GGAAUUUUAACACCUUUAGTT against Twist1,inactive: 1.6
4,GGAAGAAGAGUUCAAAGAATT against Srrm2,inactive: -0.606
5,GGUGCUACUGGAAGAAGGGTT against Ubl4a,inactive: 0.984
6,GGAAAAAUUUUGGAUUCAGTT against Hmgxb4,inactive: 0.309
7,GGAAAUUGUGGACAUGAUCTT against Sult1c1,active: -3.27
8,GGUUUUUGGAUUCAAAGCATT against Pten,inactive: -0.703
9,GGCUUGCUGAUUAAAGAUGTT against Strbp,inactive: -0.544
10,GGGAGGACAGGUUCCUUAATT against Ndufa9,inactive: 1.86
11,GGCUAUGCAUACAUAUAAATT against Slc24a2,inactive: -0.338
12,GGAAGAAGAAAGAUUCAAATT against Bcan,inactive: -0.862
13,GCAUGGACAGUUAUGUAUATT against Slc5a6,inactive: -0.207
14,GGAGAUUGAUGAGCAUGCCTT against Rab40b,active: -2.15
15,GGAUACAAGAUACCAUUGATT against Slc27a2,inactive: -0.412
16,GGAAAAAGCAAUCAGACACTT against Pdcd7,inactive: -0.862
17,GGUGUGUAACAAGGCCUUCTT against Ovol2,inactive: -1.21
18,GCUUCCAGUCAGUGGUUACTT against Rara,inactive: 1.07
19,GGCCAAGAAUGAGCCAGUATT against Lrp1,inactive: 0.452
20,GGAUAAAAAUCACCCACUGTT against Vwa8,inactive: 0.21
21,GCAGGUUAUGGUCAUAUUUTT against Zfp646,inactive: 0.583
22,GGGAAGAAACAAAGCUUUUTT against Olfr267,inactive: 0.538
23,GGAAUUUGAUGAGGAUUUGTT against Septin3,inactive: 1.2

row,Sequence,z-score
1,CCCUACUGUUAUUCAAACCTT against Rhoj,inactive: 0.45
2,GCACUGGAAGGCCAAUUAGTT against Fancb,inactive: 0.35
3,GGUGCAUUCUUAGUAUACUTT against Pgap1,inactive: -1.67
4,GGGUAUAAGAAAACUGGCATT against Rad18,inactive: 0.721
5,CCUACUGUACCAGUAAAGUTT against Dzip1,inactive: 0.00188
6,GGAGAGUUGGGACUAUGCATT against Cd37,inactive: -0.613
7,GGAAGAUCAGCCAUACUAGTT against Klrb1f,active: 2.12
8,CUCAACAUUCUCUAAACAUTT against Zfp708,inactive: -0.0612
9,GGGACAAGUUGGAUUCUUGTT against Polr1e,inactive: -0.96
10,GGAGCACUAUGAUGAGUUCTT against U2af1,inactive: -0.452
11,CCUUGAUCUACAUAGAACCTT against Olfr177,inactive: 0.338
12,CCGGUUUAUGUCCUCUAUATT against Slc8a1,inactive: 0.25
13,CCACACAGUUAAUUGAAAUTT against Nsun2,inactive: -0.541
14,GUGAGUUCGAAAAGGGAAUTT against Arap2,inactive: 0.33
15,GGAUCUUGAUCUUAGGACATT against Vwa7,inactive: 0.724
16,AUGGAUGCAAGAGCUUGAUTT against Maml3,inactive: 0.107
17,GGGCAAAAUACAAAAGGAGTT against Mlph,inactive: -0.9
18,GGAAAUGAAUUUUGGAAUCTT against Inpp5k,inactive: -0.271
19,CCCUUUUUUUUCUAGCACCTT against Gjd4,inactive: 0.97
20,CCUUGUCGAGCACAUGAGATT against Zfp69,inactive: 0.0825
21,GGGCAGUUUUACUUUGUAATT against Golga2,inactive: -1.75
22,GCAGCAGUGUUCACCAAAATT against Aldh1a3,inactive: -0.73
23,CCAUGAAACUUAAAAUCCUTT against Tmem30b,inactive: -0.392

row,Sequence,z-score
1,GCUUCUCCUCUUUGGAUUATT against Olfr866,inactive: 1.05
2,GGGAGAAAAGGGUCAAAAATT against Marco,inactive: 0.819
3,GGCGAGCAUGAUCAUCCCATT against Gcm1,inactive: -0.697
4,GGCAUCCAAUGAUUACAAATT against Ubash3a,inactive: 0.351
5,GCAAUUUGGAACACCUAAGTT against Fam76b,inactive: 1.97
6,GUGUGGUCACCAUUGUCCUTT against Ptprcap,inactive: 1.7
7,CCUGUAUUUUACGAUCUUUTT against Best1,inactive: 0.103
8,CCCUUUGAUAUGAAGUCAATT against Copg2,inactive: -0.737
9,GGAAAUGCAGAACCGAACATT against Echs1,inactive: -0.0673
10,GGUGUCGCUUUUUUAUCAATT against Elp1,inactive: 0.128
11,GGGCUAAGGACAGAAUUACTT against Tusc2,inactive: -0.0196
12,GCUCAAACCUUGUCUUUAUTT against Acrv1,inactive: -1.11
13,GCAUAAGGACCCUUUGUCATT against Rasl10b,inactive: -1.27
14,GGUAAAUGGUUUAACUACGTT against Tmem117,inactive: -0.68
15,GGUCCUGUUAGUGUUUACCTT against Pde8a,inactive: -0.123
16,CGGAUCCUGGUCACCAUUUTT against Olfr95,inactive: 0.662
17,GCUCCUUUUUCCUCUCUUUTT against Defb23,inactive: 0.0502
18,GCUCUCUCUCUUCUUACUGTT against Olfr1160,active: -2.16
19,GCAGGAGUCAAACGAGUACTT against Vim,inactive: -0.837
20,GGAACCAGUGGCUUAGGAATT against Pclaf,inactive: 0.39
21,GCUCCUGAUUUUGACUAUCTT against Macir,inactive: -0.466
22,GGCAGUGGCAAAUCAAGAUTT against Pop1,inactive: 1.19

# Pulled one by one from the list above:
row,Sequence,z-score
7,GGAAAUUGUGGACAUGAUCTT against Sult1c1,active: -3.27
18,GCUUCCAGUCAGUGGUUACTT against Rara,inactive: 1.07
17,GCUCCUUUUUCCUCUCUUUTT against Defb23,inactive: 0.0502
13,GCAUGGACAGUUAUGUAUATT against Slc5a6,inactive: -0.207
20,GGAUAAAAAUCACCCACUGTT against Vwa8,inactive: 0.21
12,CCGGUUUAUGUCCUCUAUATT against Slc8a1,inactive: 0.25
